PubChem BioAssay AID1224831, NIAID, 2016
Screen: 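Genes that support or restrain LPS-induced TNF-alpha reporter activity in macrophage-like cells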 (follow-up of hits). Cell system: human THP-1 B5 monocytic leukaemia cells carrying a TNF promoter luciferase reporter, made macrophage-like with PMA. Knock-down reagent: single siRNA against human genes, 50 nM. Time to read-out: about 68 h of knock-down, then 4 h LPS. Conditions: LPS (Salmonella minnesota, TLR-grade) at 10 ng/ml for 4 h; PMA 5 ng/ml present during knock-down. Measurement: 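Firefly to renilla luciferase ratio of a TNF promoter reporter after 4 h LPS, scaled to plate median, turned into robust z-score, averaged over replicates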. Reading the numbers: TNF reporter z-score: higher = stronger LPS-induced TNF reporter signal; z-score, median over gene's siRNAs: higher = stronger TNF reporter signal across the gene's siRNAs. Active means: 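Two-sided call: reduced or raised TNF reporter signal counts as active once mean z reaches about -1 or below, or about 1.5 or above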. Meaning of the calls: active = changed TNF reporter (either direction); inactive = little change.
Here is an unselected part of about 3,500 reagents tested. 731 of them (21%) count as active. 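Active means either lowered or raised reporter signal; the gene-median score did not drive the per-siRNA calls.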 Entries without a mark were called inactive. Reagents against one gene are numbered here.

Which result is listed for SLC35D4 #1?
TNF reporter z-score, replicate mean: 0.36; z-score, median over gene's siRNAs: 0.115

How did the screen score SLC35D4 #2?
TNF reporter z-score, replicate mean: -0.61; z-score, median over gene's siRNAs: 0.115

What is on record for SLC35D4 #3?
TNF reporter z-score, replicate mean: 0.36; z-score, median over gene's siRNAs: 0.115

Which result is listed for SLC35D4 #4?
TNF reporter z-score, replicate mean: -0.02; z-score, median over gene's siRNAs: 0.115

Which result is listed for SLC35D4 #5?
TNF reporter z-score, replicate mean: -1.17 (active); z-score, median over gene's siRNAs: 0.115

What did the screen give for SLC35D4 #6?
TNF reporter z-score, replicate mean: 0.25; z-score, median over gene's siRNAs: 0.115

Part of the list above, reduced to “TNF reporter z-score, replicate mean”:
SLC35D4 #1: 0.36
SLC35D4 #2: -0.61

Additional entries follow:
How did the screen score ARL5B #1?
TNF reporter z-score, replicate mean: -1.07 (active); z-score, median over gene's siRNAs: -0.445

What is on record for ARL5B #2?
TNF reporter z-score, replicate mean: -0.84; z-score, median over gene's siRNAs: -0.445

What is on record for ARL5B #3?
TNF reporter z-score, replicate mean: 1.46; z-score, median over gene's siRNAs: -0.445

How did the screen score ARL5B #4?
TNF reporter z-score, replicate mean: -1.13 (active); z-score, median over gene's siRNAs: -0.445

How did the screen score ARL5B #5?
TNF reporter z-score, replicate mean: 0.23; z-score, median over gene's siRNAs: -0.445

Which result is listed for ARL5B #6?
TNF reporter z-score, replicate mean: -0.05; z-score, median over gene's siRNAs: -0.445

For TMSB4XP8 #1, what does the deposit list?
TNF reporter z-score, replicate mean: 2.95 (active); z-score, median over gene's siRNAs: 0.13

Which result is listed for TMSB4XP8 #2?
TNF reporter z-score, replicate mean: -1.33 (active); z-score, median over gene's siRNAs: 0.13

With TMSB4XP8 #3, what does the deposit list?
TNF reporter z-score, replicate mean: 0.95; z-score, median over gene's siRNAs: 0.13

With TMSB4XP8 #4, what was measured?
TNF reporter z-score, replicate mean: -0.23; z-score, median over gene's siRNAs: 0.13

What is on record for TMSB4XP8 #5?
TNF reporter z-score, replicate mean: -1.12 (active); z-score, median over gene's siRNAs: 0.13

For TMSB4XP8 #6, what was measured?
TNF reporter z-score, replicate mean: 0.49; z-score, median over gene's siRNAs: 0.13
